Results: patent US20250026849A1 (ARCELLX, published 2025)
No constants are given. Whether binding was seen depends on the method and setting. A result given as binding can be weak or reduced; the word gives no strength.

Sequences of proteins named here, by UniProt entry; tags and fusion partners are left off. A change or cut given only in a name is not applied to a line headed by its entry.
UniProt P55899: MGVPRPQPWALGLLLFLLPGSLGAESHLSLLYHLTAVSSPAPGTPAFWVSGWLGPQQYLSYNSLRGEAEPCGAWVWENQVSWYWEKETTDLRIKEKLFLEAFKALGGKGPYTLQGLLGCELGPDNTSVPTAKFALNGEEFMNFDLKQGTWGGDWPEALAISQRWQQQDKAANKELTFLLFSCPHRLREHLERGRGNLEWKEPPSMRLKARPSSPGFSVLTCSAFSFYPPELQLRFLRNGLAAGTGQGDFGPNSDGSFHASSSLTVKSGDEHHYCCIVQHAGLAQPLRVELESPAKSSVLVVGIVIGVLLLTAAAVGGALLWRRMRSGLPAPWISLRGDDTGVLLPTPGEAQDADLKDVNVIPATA

What was measured:
[1] = biological target: Biotinylated human FcRn (human) (UniProt P55899); assay: ELISA at pH 6.0 and pH 7.4
[2] = biological target: Biotinylated human FcRn (human) (UniProt P55899); assay: ELISA: adapter coated on the plate, serially diluted biotinylated human FcRn at pH 6.0 or 7.4, streptavidin-HRP, A450
[3] = biological target: Biotinylated human FcRn (human) (UniProt P55899); assay: ELISA at pH 6.0 and pH 7.4 (FIG. 10)

Measured: binding

B1: bc40-p26 Adapter (SEQ ID NO: 1085) (designed binder)
chain: DEHHHHHHHHHHKLENLYFQGGGGGSMGSWSEFWVRLGAIRERLDALGGSEAELAAFEKEIAAFESELQAYKGKGNPEVEKLRYTAATIRRFLQAYRHNGGGGSGGGGSGGGGSLEKCFQTENPLECQDKGEEELQKYIQESQALAKRSCGLFQKLGEYYLQNAFLVAYTKKAPQLTSSELMAITRKMAATAATCCQLSEDKLLACGEGAADIIIGHLCIRHEMTPVNPGVGQCCTSSYANRRPCFSSLVVDETYVPPAFSDDKFIFHKDLCQAQGVALQTMKQEFLINLVKQKPQITEEQLEAVIADFSGLLEKCCQGQEQEVCFAEEGQKLISKTRAALGV
binds: all assays above

B2: bc98-p26(Q26-V229)-bc98 (SEQ ID NO: 1132) (designed binder)
chain: DEMGSWSEFWARLGAIRERLDALGGSEAELAAFEKEIAAFESELQAYKGKGNPEVEKLRYTAGTIKRFLQAYRHNGGGGDGGGGSGGGGSGQESQALAKRSCGLFQKLGEYYLQNAFLVAYTKKAPQLTSSELMAITRKMAATAATCCQLSEDKLLACGEGAADIIIGHLCIRHEMTPVNPGVGQCCTSSYANRRPCFSSLVVDETYVPPAFSDDKFIFHKDLCQAQGVALQTMKQEFLINLVKQKPQITEEQLEAVIADFSGLLEKCCQGQEQEVCFAEEGQKLISKTRAALGVGGGGSGGGGSGGGGSMGSWSEFWARLGAIRERLDALGGSEAELAAFEKEIAAFESELQAYKGKGNPEVEKLRYTAGTIKRFLQAYRHNGGGGSGGGGSGGGGSHHHHHHHHHH
binds: all assays above
